Data source: PubChem BioAssay AID1259405 (NCATS, 2018)
This is a random part of about 50,000 deposited reagents. About 4,000 of them (8%) count as active. 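Mouse siRNA library applied to hamster cells; one well for each siRNA.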 Reagents against one gene are numbered here. No sequences are given here.

Screen: 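Knock-downs that lift recombinant protein yield in hamster ovary cells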 (primary screen)
Cells: Chinese hamster CHO-K1 ovary cells with stable secreted eGFP expression
Reagent: single siRNA against mouse genes, 0.8 pmol siRNA per well (2 µl of 400 nM stock)
Timing: 3 days
Detection: 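Per-well intracellular GFP measured by laser scanning cytometry, plus viability from ATP luminescence, each relative to plate median of non-targeting control wells, in %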
Scale: GFP, % of control: higher = more GFP per well, higher productivity; viability (ATP), % of control: higher = more viable cells (more ATP)
Hit rule: 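Called active when intracellular GFP, relative to negative control, is at or above 120%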

| gene knocked down | reagent no. | GFP, % of control | viability (ATP), % of control | outcome |
| --- | --- | --- | --- | --- |
| Rps29 (ribosomal protein S29) | 1 | 108 | 58.7 | inactive |
| Rps29 (ribosomal protein S29) | 2 | 31.8 | 25.3 | inactive |
| Rps29 (ribosomal protein S29) | 3 | 57.5 | 78.6 | inactive |
| Or5v1 (olfactory receptor family 5 subfamily V member 1) | 1 | 107 | 71.6 | inactive |
| Or5v1 (olfactory receptor family 5 subfamily V member 1) | 2 | 69.5 | 79 | inactive |
| Or5v1 (olfactory receptor family 5 subfamily V member 1) | 3 | 96 | 47.4 | inactive |
| Gpc6 (glypican 6) | 1 | 70.4 | 61.9 | inactive |
| Gpc6 (glypican 6) | 2 | 63.1 | 66.6 | inactive |
| Gpc6 (glypican 6) | 3 | 81.8 | 54.4 | inactive |
| Ppm1l (protein phosphatase 1 (formerly 2C)-like) | 1 | 99.7 | 78.1 | inactive |
| Ppm1l (protein phosphatase 1 (formerly 2C)-like) | 2 | 111 | 49.8 | inactive |
| Ppm1l (protein phosphatase 1 (formerly 2C)-like) | 3 | 98.8 | 60.4 | inactive |

Next part; the last 5 above are carried over.
| gene knocked down | reagent no. | GFP, % of control | viability (ATP), % of control | outcome |
| --- | --- | --- | --- | --- |
| Gpc6 (glypican 6) | 2 | 63.1 | 66.6 | inactive |
| Gpc6 (glypican 6) | 3 | 81.8 | 54.4 | inactive |
| Ppm1l (protein phosphatase 1 (formerly 2C)-like) | 1 | 99.7 | 78.1 | inactive |
| Ppm1l (protein phosphatase 1 (formerly 2C)-like) | 2 | 111 | 49.8 | inactive |
| Ppm1l (protein phosphatase 1 (formerly 2C)-like) | 3 | 98.8 | 60.4 | inactive |
| Ano9 (anoctamin 9) | 1 | 90.8 | 64.8 | inactive |
| Ano9 (anoctamin 9) | 2 | 95.9 | 91.5 | inactive |
| Ano9 (anoctamin 9) | 3 | 148 | 131 | active |
| Hint1 (histidine triad nucleotide binding protein 1) | 1 | 91.1 | 92.2 | inactive |
| Hint1 (histidine triad nucleotide binding protein 1) | 2 | 88.4 | 55.8 | inactive |
| Hint1 (histidine triad nucleotide binding protein 1) | 3 | 111 | 86.9 | inactive |
| Morc2b (microrchidia 2B) | 1 | 90.3 | 70.1 | inactive |
| Morc2b (microrchidia 2B) | 2 | 70.7 | 59.2 | inactive |
| Morc2b (microrchidia 2B) | 3 | 91.7 | 93.6 | inactive |
| Dph3 (diphthamine biosynthesis 3) | 1 | 45.6 | 41.7 | inactive |
| Dph3 (diphthamine biosynthesis 3) | 2 | 63.4 | 55.9 | inactive |
| Dph3 (diphthamine biosynthesis 3) | 3 | 71.7 | 88.3 | inactive |
| Cmtm1 (CKLF-like MARVEL transmembrane domain containing 1) | 1 | 67.9 | 81.2 | inactive |
| Cmtm1 (CKLF-like MARVEL transmembrane domain containing 1) | 2 | 103 | 82.9 | inactive |
| Cmtm1 (CKLF-like MARVEL transmembrane domain containing 1) | 3 | 88.1 | 124 | inactive |
| Plaat1 (phospholipase A and acyltransferase 1) | 1 | 113 | 83.4 | inactive |
| Plaat1 (phospholipase A and acyltransferase 1) | 2 | 88.6 | 75.4 | inactive |
| Plaat1 (phospholipase A and acyltransferase 1) | 3 | 132 | 86 | active |
| Il4i1 (interleukin 4 induced 1) | 1 | 85.4 | 85.1 | inactive |
| Il4i1 (interleukin 4 induced 1) | 2 | 63.4 | 81.1 | inactive |
| Il4i1 (interleukin 4 induced 1) | 3 | 55.1 | 73.5 | inactive |
| Cenpo (centromere protein O) | 1 | 91 | 94.8 | inactive |
| Cenpo (centromere protein O) | 2 | 45.9 | 47.7 | inactive |
| Cenpo (centromere protein O) | 3 | 71.7 | 66.5 | inactive |
